This note sets out measurements from paper doi:10.1101/2021.11.16.468784.

Protein sequences, listed by entry. Tags and fused reporters are not part of them.
UniProt P43354: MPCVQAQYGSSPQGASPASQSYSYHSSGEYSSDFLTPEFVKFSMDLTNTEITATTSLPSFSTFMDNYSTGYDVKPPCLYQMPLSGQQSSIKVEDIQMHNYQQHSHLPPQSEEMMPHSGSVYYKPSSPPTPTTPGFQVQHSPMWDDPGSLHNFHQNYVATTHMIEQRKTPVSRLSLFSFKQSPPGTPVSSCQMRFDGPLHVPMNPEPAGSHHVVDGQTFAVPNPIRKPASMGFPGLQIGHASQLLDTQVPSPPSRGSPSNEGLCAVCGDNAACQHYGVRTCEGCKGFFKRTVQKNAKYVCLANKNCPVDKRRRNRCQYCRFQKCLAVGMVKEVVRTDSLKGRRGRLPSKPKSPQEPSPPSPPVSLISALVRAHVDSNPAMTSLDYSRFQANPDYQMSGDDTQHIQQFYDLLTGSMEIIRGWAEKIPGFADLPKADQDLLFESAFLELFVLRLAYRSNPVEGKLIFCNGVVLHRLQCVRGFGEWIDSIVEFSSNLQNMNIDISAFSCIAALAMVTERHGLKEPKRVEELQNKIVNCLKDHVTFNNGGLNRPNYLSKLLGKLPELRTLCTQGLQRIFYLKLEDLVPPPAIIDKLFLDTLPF
UniProt Q13547: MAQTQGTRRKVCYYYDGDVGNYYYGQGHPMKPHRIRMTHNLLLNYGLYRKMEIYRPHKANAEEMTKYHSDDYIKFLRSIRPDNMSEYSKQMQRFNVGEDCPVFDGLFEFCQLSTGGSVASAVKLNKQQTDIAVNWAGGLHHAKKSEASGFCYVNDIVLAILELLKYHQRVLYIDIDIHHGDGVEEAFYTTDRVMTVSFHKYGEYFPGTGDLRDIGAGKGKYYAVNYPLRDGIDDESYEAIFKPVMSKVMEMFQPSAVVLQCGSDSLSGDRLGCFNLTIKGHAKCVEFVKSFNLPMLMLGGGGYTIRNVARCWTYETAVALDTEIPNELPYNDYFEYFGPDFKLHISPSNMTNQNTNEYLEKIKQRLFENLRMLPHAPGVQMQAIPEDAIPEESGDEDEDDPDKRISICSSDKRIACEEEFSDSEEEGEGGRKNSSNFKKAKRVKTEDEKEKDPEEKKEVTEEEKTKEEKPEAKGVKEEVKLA
UniProt Q9UKL0: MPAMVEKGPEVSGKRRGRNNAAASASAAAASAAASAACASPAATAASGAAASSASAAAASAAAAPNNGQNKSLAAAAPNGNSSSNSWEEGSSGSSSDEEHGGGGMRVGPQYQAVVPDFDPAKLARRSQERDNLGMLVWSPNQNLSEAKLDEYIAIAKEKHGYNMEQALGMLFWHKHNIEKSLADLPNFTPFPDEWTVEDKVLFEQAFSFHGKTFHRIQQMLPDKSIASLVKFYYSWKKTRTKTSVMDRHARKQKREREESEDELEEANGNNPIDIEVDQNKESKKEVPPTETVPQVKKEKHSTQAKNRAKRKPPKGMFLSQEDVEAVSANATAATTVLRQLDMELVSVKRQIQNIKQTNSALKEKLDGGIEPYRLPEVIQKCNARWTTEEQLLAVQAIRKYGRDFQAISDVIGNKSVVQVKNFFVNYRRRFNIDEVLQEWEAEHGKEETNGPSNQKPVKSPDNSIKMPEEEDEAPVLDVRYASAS
UniProt Q96KQ7: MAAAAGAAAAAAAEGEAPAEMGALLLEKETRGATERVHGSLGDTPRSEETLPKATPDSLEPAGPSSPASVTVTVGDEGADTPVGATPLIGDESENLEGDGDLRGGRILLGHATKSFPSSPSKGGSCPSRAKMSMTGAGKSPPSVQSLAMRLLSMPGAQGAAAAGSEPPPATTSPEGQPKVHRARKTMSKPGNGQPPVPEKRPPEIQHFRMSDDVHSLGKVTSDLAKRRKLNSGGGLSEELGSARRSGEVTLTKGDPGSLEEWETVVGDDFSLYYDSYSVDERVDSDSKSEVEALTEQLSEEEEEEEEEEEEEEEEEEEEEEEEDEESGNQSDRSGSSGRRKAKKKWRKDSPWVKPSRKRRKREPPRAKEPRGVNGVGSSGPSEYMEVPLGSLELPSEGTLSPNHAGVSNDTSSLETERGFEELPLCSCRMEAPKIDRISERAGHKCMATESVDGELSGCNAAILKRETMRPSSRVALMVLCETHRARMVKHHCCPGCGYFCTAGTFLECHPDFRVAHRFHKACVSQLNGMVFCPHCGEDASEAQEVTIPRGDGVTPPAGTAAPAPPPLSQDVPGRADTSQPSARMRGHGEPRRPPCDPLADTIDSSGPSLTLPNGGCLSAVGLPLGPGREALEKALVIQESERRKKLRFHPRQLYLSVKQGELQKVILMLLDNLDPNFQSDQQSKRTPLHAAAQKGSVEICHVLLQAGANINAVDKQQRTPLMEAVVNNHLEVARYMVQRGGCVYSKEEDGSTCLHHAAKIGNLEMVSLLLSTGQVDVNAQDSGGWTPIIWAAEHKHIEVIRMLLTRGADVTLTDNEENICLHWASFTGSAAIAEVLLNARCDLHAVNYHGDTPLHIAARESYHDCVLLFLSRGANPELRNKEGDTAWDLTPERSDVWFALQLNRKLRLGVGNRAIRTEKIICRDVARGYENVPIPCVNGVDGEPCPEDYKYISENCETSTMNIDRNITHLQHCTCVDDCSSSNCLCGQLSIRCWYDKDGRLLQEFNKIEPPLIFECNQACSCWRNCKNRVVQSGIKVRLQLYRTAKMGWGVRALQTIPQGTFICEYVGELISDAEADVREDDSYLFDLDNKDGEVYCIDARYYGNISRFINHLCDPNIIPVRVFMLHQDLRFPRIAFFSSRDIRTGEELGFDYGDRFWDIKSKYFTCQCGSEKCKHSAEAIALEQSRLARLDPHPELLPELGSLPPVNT

No constants are given. Whether binding was seen depends on the method and setting. In cells and extracts the contact can be indirect. Some binding calls cover weakened binding; strength is not graded here.

For this assay, the target named is 3X-FLAG-tagged Nurr1 (NR4A2) (human) (UniProt P43354). Briefly: co-IP.

Regarding HDAC1 (from UniProt Q13547 1-482), the binding entry is “binds”.
Then “corepressor 1 of REST (CoREST) (from UniProt Q9UKL0 1-485)”, with “binds”; and “euchromatic histone lysine N-methyltransferase 2 (EHMT2), also known as G9a (from UniProt Q96KQ7 1-1210)”, with “binds”.
